Data published in patent publication US10188743B2, “Cytisine-linked isoflavonoid antineoplastic agents for the treatment of cancer” (UNIVERSITY OF KENTUCKY RESEARCH FOUNDATION, priority 2016, dated 2019).
Some results were stated once for a whole list of compounds, not compound by compound. Some ranges recur; such a range may be that of the whole group of compounds.

Test system: AMPK
Experiment: AMPK activation (levels of phosphorylated AMPK, Western blotting)
Assay type: cell-based
Description: Biochemistry. Western blotting: Cells were lysed in the appropriate volume of lysis buffer (50 mM HEPES, 100 mM NaCl, 2 mM EDTA, 1% glycerol, 50 mM NaF, 1 mM Na3VO4, 1% Triton X-100, with protease inhibitors). The following antibodies were used: HSD17B4 (GeneTex, GTX103864), AMPK (Cell Signaling, 2532), pAMPK (Cell Signaling, 2535), ACC (Cell Signaling, 3676), pACC (Cell Signaling, 11818), p^70 (Cell Signaling, 2708), p-p^70 (Cell Signaling, 9914), S6 (Cell Signaling, 2217), pS6 (Cell Signaling, 4858), MCCA (GeneTex, GTX110062), tubulin (Hybridoma Bank, E7), Actin (Sigma, A1978), His-tag (BD Pharmingen, 552564).

For `Cc1oc2cc(OCCCCC(=O)CN3C[C@@H]4C[C@@H](C3)c3cccc(=O)n3C4)ccc2c(=O)c1-c1ccc(Cl)cc1` [Compound 14d, (1S,5S)-3-(6-((3-(4-Chlorophenyl)-2-methyl-4-oxo-4H-chromen-7-yl)oxy)-2-oxohexyl)-3,4,5,6-tetrahydro-1H-1,5-methanopyrido[1,2-a][1,5]diazocin-8(2H)-one], the “concentration at which AMPK activation was exhibited” value was 10 to 30 µM.
